These are yes or no findings as the source states them, for the method shown. In cells and extracts the contact can be indirect. A result given as binding can be weak or reduced; the word gives no strength. For some assays here: Where a sequence is shown, tags or fusion partners need not be part of it.
Tests used:
[1] = target: T1, GST::Cup577–947 (Drosophila) (UniProt Q9VMA3); experiment: pull-down; GST::Bru, GST::Cup or GST immobilized on Glutathione Sepharose 4B from E. coli extract and washed; ~100 ng N-terminally His6-tagged Bru protein in 80 μl binding buffer (50mM Tris-Cl pH7.5, 150mM NaCl, 10% glycerol, 1mM DTT, 0.1% IGEPAL-CA-630), 2–3 hr at room temperature; Western blot with anti-His antibody; both purified
T1 sequence: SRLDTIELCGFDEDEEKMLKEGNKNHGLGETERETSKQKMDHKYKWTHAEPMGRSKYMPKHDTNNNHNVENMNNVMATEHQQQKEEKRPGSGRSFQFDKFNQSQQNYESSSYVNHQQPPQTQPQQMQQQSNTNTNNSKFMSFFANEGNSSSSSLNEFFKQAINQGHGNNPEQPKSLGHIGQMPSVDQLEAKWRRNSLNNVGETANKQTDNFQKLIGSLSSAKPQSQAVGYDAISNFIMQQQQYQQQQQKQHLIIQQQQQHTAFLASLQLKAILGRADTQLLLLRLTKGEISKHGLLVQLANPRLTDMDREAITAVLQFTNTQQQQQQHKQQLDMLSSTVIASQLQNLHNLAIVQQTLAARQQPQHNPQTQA

Amino acid sequences for entries named in this document (tags omitted). A change or cut given only in a name is not applied to a line headed by its entry.
UniProt O02374: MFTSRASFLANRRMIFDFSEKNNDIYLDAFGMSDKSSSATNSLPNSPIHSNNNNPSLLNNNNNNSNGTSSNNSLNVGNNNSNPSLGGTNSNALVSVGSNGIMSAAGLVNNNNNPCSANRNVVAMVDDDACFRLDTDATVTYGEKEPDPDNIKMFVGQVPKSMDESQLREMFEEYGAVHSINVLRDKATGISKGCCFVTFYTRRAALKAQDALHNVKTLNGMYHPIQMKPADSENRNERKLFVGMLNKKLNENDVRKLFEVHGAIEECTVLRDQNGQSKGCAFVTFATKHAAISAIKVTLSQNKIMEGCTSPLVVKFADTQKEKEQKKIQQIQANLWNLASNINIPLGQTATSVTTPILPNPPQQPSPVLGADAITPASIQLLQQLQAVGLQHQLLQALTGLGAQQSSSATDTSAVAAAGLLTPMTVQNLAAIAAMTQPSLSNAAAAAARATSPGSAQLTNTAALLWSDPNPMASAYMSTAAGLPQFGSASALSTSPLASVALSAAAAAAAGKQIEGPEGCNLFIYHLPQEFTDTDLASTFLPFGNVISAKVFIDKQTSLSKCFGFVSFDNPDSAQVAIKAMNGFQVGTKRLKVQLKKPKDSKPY

[2] = target: GST::Bru (full-length Bruno fused to GST) (Drosophila) (UniProt O02374); experiment: as above

Row | Substance | binding [1] | binding [2]
1 | His6::Bru S4E/S7E (from UniProt O02374) | binds | binds weakly
2 | His6::Bru S4E/S7E/T135E (from UniProt O02374) | binds weakly | no binding (tested: ~100 ng in 80 μl)
3 | His6::Bru S7E (from UniProt O02374) | binds | binds
4 | His6::Bru S7E/T135E (from UniProt O02374) | binds | binds

Reference: publication PMC4344327, “Region-Specific Activation of oskar mRNA Translation by Inhibition of Bruno-Mediated Repression” (PLoS Genetics, 2015)
